# PMC3585324, “InterAKTions with FKBPs - Mutational and Pharmacological Exploration” (PLoS ONE, 2013)
# Chains of the proteins cited; added tags and fusions are not shown. Lines headed by an entry give the natural chain unless they say otherwise; changes in a name come on top.
# UniProt P68106: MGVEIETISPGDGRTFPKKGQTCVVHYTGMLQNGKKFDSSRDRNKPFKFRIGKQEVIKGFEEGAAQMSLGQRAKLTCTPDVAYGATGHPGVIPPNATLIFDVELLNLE
# UniProt P31749: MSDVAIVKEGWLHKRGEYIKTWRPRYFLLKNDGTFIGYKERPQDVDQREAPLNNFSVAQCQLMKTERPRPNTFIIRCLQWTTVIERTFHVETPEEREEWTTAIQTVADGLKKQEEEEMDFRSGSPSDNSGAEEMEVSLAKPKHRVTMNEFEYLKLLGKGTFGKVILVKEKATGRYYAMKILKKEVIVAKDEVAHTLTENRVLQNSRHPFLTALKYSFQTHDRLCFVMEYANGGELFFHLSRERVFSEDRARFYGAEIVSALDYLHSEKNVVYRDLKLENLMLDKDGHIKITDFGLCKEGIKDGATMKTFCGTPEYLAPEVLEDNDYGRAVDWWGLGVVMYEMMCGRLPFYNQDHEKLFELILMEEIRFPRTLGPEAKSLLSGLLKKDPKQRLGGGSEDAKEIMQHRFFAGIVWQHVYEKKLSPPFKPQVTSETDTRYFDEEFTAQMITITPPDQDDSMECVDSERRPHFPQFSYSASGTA
# UniProt Q08752: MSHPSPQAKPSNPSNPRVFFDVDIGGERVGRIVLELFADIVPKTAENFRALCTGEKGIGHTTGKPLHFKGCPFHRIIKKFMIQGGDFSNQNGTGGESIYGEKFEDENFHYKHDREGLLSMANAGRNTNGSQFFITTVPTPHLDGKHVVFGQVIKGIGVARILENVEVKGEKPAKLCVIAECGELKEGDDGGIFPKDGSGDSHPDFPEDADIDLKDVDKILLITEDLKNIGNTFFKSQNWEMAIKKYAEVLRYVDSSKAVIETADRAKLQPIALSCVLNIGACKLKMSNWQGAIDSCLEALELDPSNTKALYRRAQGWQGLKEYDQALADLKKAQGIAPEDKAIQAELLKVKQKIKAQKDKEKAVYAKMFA
# Read-outs that look alike come from different tables or passages of the source. These are yes or no findings as the source states them, for the method shown. For some assays here: Binding seen in cells or lysates may run through a third protein. Some results given as binding are weak or reduced against the parent protein; the word gives no strength. For some assays here: Where a sequence is shown, tags or fusion partners need not be part of it.
# T1: FLAG-tagged FKBP51^K352A/R356A (TPR_mut) (UniProt Q13451)
# T1 sequence: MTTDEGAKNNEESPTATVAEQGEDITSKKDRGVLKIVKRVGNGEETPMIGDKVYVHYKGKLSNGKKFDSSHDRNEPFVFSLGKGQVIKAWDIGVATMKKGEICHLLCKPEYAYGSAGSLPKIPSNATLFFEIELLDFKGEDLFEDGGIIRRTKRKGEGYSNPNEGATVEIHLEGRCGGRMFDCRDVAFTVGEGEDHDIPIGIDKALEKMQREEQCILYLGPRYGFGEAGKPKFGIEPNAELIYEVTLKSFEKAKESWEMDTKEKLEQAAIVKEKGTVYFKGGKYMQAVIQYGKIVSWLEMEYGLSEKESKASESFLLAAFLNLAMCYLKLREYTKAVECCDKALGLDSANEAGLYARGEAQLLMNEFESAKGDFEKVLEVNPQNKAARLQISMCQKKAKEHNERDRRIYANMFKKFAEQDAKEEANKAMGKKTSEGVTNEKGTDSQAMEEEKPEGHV
# T2: FLAG-tagged FKBP52 (expressed in cells) (UniProt Q02790)
# T2 sequence: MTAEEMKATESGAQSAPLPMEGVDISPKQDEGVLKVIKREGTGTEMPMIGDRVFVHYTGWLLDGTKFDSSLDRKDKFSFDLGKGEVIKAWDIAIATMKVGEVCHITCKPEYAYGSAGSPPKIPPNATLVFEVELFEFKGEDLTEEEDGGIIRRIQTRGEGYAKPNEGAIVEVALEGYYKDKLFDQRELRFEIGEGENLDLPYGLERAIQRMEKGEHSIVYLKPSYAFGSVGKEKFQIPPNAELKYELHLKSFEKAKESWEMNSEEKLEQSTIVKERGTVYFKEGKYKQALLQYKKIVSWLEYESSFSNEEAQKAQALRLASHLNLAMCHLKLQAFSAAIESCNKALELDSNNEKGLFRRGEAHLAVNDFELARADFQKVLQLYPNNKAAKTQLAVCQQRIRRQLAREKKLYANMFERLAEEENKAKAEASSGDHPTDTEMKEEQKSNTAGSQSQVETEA
# T3: FLAG-tagged FKBP51 (expressed in cells) (UniProt Q13451)
# T3 sequence: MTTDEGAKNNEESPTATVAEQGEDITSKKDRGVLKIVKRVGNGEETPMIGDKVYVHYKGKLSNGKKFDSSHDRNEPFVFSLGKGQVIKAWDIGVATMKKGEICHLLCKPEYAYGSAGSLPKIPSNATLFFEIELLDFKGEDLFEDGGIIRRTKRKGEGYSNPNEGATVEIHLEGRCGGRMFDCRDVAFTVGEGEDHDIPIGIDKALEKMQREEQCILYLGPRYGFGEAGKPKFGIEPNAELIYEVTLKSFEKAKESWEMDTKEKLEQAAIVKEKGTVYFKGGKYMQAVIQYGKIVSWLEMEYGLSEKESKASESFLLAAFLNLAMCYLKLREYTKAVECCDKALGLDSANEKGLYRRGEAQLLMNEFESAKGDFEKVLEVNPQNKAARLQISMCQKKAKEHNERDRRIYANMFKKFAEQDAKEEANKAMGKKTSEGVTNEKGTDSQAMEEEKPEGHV
# Tests used:
# [1] = target: FLAG-tagged FKBP12 (expressed in cells) (UniProt P62942); assay: co-IP; HEK293T cells co-transfected; lysis in NETN buffer; FLAG or HA affinity resin overnight at 4 °C, 5 washes, Western blot; in some panels cells were treated before lysis with FK1706, FK506 or rapamycin (1 µM, 1 h), AT7867 (10 µM, 1 h), wortmannin, starvation or FCS
# [2] = target: T1, FLAG-tagged FKBP51^K352A/R356A (TPR_mut); assay: as above
# [3] = target: T2, FLAG-tagged FKBP52 (expressed in cells); assay: as above
# [4] = target: T3, FLAG-tagged FKBP51 (expressed in cells); assay: as above
# [5] = target: FLAG-tagged FKBP12.6 (expressed in cells) (UniProt P68106); assay: as above
# GST_Akt1^S473D = target: T4, GST_Akt1^S473D (UniProt P31749 1-480, S473D); assay: pull-down; GST pull-down: 15 µM FKBPs or Cyp40 with 22 µM GST_Akt1 S473D or GST_Akt1 S473D_ΔPH on glutathione resin, 3 h, 4 °C, NETN buffer (20 mM Tris-HCl pH 8.0, 100 mM NaCl, 1 mM EDTA, 0.5% igepal); AMP-PNP (5 mM), rapamycin (1 µM) or DMSO where indicated; Western blot; both purified
# T4 construct: Akt1 with the phosphomimetic S473D, called constitutively active; also called purified GST-tagged Akt1S473D; GST-tagged active Akt
# HA_Akt1 (wild type) = HA_Akt1 (wild type) (UniProt P31749); assay: co-IP; HEK293T cells co-transfected; lysis in NETN buffer; FLAG or HA affinity resin overnight at 4 °C, 5 washes, Western blot; in some panels cells were treated before lysis with FK1706, FK506 or rapamycin (1 µM, 1 h), AT7867 (10 µM, 1 h), wortmannin, starvation or FCS
# [6] = target: T3, FLAG-tagged FKBP51 (expressed in cells); assay: as above; remark: listed apart in the source
molecule,measurement,setting,value
HA_Akt1 (wild type) (from UniProt P31749 1-480),binding,[1],binds
same,binding,[2],binds
same,binding,[3],binds
same,binding,[4],binds
same,binding,[5],binds
HA_Akt1 S473A (from UniProt P31749 1-480),binding,[2],binds
HA_Akt1 T308D/S473D (from UniProt P31749 1-480),binding,[2],binds
purified Cyp40 (from UniProt Q08752 1-370),binding,GST_Akt1^S473D,no binding (tested: 15 µM)
"purified FKBP51 ΔFK1_FLAG (domain or fragment, UniProt Q13451 143-457, looked up, FKBP51 without the FK1 domain; It was the only construct not checked by active site titration; also called FKBP51 ΔFK1 construct; pProExHta_ΔFK1; source: purified) FEDGGIIRRTKRKGEGYSNPNEGATVEIHLEGRCGGRMFDCRDVAFTVGEGEDHDIPIGIDKALEKMQREEQCILYLGPRYGFGEAGKPKFGIEPNAELIYEVTLKSFEKAKESWEMDTKEKLEQAAIVKEKGTVYFKGGKYMQAVIQYGKIVSWLEMEYGLSEKESKASESFLLAAFLNLAMCYLKLREYTKAVECCDKALGLDSANEKGLYRRGEAQLLMNEFESAKGDFEKVLEVNPQNKAARLQISMCQKKAKEHNERDRRIYANMFKKFAEQDAKEEANKAMGKKTSEGVTNEKGTDSQAMEEEKPEGHV",binding,HA_Akt1 (wild type),binds
"FKBP51ΔFK1FK2_FLAG (expressed in cells) (domain or fragment, UniProt Q13451 259-457) MDTKEKLEQAAIVKEKGTVYFKGGKYMQAVIQYGKIVSWLEMEYGLSEKESKASESFLLAAFLNLAMCYLKLREYTKAVECCDKALGLDSANEKGLYRRGEAQLLMNEFESAKGDFEKVLEVNPQNKAARLQISMCQKKAKEHNERDRRIYANMFKKFAEQDAKEEANKAMGKKTSEGVTNEKGTDSQAMEEEKPEGHV",binding,HA_Akt1 (wild type),binds
"HA-tagged PHLPP2 (protein, UniProt Q6ZVD8 1-1323) MKRNGSRNCLNRRSRFGSRERDWLREDVKRGCVYLYGADTTTATTTTTTSSSSSSSSSSSDLHLVLCTVETPASEICAGEGRESLYLQLHGDLVRRLEPTERPLQIVYDYLSRLGFDDPVRIQEEATNPDLGCMIRFYGEKPCHMDRLDRILLSGIYNVRKGKTQLHKWAERLVVLCGTCLIVSSVKDCQTGKMHILPLVGGKIEEVKRRQYSLAFSSAGAQAQTYHVSFETLAEYQRWQRQASKVVSQRISTVDLSCYSLEEVPEHLFYSQDITYLNLRHNFMQLERPGGLDTLYKFSQLKGLNLSHNKLGLFPILLCEISTLTELNLSCNGFHDLPSQIGNLLNLQTLCLDGNFLTTLPEELGNLQQLSSLGISFNNFSQIPEVYEKLTMLDRVVMAGNCLEVLNLGVLNRMNHIKHVDLRMNHLKTMVIENLEGNKHITHVDLRDNRLTDLDLSSLCSLEQLHCGRNQLRELTLSGFSLRTLYASSNRLTAVNVYPVPSLLTFLDLSRNLLECVPDWACEAKKIEVLDVSYNLLTEVPVRILSSLSLRKLMLGHNHVQNLPTLVEHIPLEVLDLQHNALTRLPDTLFSKALNLRYLNASANSLESLPSACTGEESLSMLQLLYLTNNLLTDQCIPVLVGHLHLRILHLANNQLQTFPASKLNKLEQLEELNLSGNKLKTIPTTIANCKRLHTLVAHSNNISIFPEILQLPQIQFVDLSCNDLTEILIPEALPATLQDLDLTGNTNLVLEHKTLDIFSHITTLKIDQKPLPTTDSTVTSTFWSHGLAEMAGQRNKLCVSALAMDSFAEGVGAVYGMFDGDRNEELPRLLQCTMADVLLEEVQQSTNDTVFMANTFLVSHRKLGMAGQKLGSSALLCYIRPDTADPASSFSLTVANVGTCQAVLCRGGKPVPLSKVFSLEQDPEEAQRVKDQKAIITEDNKVNGVTCCTRMLGCTYLYPWILPKPHISSTPLTIQDELLILGNKALWEHLSYTEAVNAVRHVQDPLAAAKKLCTLAQSYGCQDNVGAMVVYLNIGEEGCTCEMNGLTLPGPVGFASTTTIKDAPKPATPSSSSGIASEFSSEMSTSEVSSEVGSTASDEHNAGGLDTALLPRPERRCSLHPTPTSGLFQRQPSSATFSSNQSDNGLDSDDDQPVEGVITNGSKVEVEVDIHCCRGRDLENSPPLIESSPTLCSEEHARGSCFGIRRQNSVNSGMLLPMSKDRMELQKSPSTSCLYGKKLSNGSIVPLEDSLNLIEVATEVPKRKTGYFAAPTQMEPEDQFVVPHDLEEEVKEQMKQHQDSRLEPEPHEEDRTEPPEEFDTAL",binding,[6],binds
